Measured values from publication PMC5052650.
For some of these results: Weaker means in comparison with the reference protein, sequence or condition of that experiment. For at least one entry, the source does not settle the construct or the ends of the probe. For some of these results: A negative result means that nothing was seen under these conditions. For some of these results: At least one verdict rests on a figure or table, not on a statement of the authors.

Protein sequences, listed by entry. Tags and fused reporters are not part of them. Residues count along the entry.
UniProt Q9UGN5, 1-70: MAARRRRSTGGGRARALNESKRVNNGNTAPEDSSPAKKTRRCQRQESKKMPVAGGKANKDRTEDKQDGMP
UniProt Q9UGN5, 1-218: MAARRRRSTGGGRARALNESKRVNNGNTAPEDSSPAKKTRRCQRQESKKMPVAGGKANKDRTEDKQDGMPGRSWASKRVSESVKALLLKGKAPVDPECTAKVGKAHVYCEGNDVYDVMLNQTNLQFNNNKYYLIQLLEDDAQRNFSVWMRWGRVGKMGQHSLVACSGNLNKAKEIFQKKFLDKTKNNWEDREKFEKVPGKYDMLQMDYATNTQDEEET
UniProt Q9UGN5, 71-583: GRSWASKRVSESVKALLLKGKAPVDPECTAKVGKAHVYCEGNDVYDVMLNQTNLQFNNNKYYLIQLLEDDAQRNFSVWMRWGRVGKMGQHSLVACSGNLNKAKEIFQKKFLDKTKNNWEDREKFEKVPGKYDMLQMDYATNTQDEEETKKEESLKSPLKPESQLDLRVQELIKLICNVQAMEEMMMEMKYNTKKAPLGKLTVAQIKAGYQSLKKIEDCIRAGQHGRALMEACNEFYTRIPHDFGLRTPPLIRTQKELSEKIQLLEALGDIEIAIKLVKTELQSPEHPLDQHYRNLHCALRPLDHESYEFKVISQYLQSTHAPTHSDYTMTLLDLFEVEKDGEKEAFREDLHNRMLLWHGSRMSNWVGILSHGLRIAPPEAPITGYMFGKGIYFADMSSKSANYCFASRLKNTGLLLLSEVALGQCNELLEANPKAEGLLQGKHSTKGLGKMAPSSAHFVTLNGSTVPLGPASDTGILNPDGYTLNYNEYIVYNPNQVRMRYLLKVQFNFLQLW
UniProt Q9UGN5, 71-218: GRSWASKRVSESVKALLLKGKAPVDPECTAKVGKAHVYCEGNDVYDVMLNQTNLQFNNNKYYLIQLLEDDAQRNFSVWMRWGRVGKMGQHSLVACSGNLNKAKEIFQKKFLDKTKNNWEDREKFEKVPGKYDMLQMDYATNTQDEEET

Legend:
ARTD2N (Homo sapiens) [1] = biological target: ARTD2N (Homo sapiens) (UniProt Q9UGN5); test: EMSA; conditions: no shift, binds in FP (fast off rate suggested); 5'-phosphate; EMSA: 50 mM Hepes, 300 mM NaCl, 0.1 mM EDTA, 10% glycerol, 0.1 mM TCEP, on ice, 1 uM DNA; recombinant protein; protein details: His6-thioredoxin removed by TEV (QS left); folded or branched DNA
[2] = biological target: ARTD2N+WGR (Homo sapiens) (UniProt Q9UGN5); test: EMSA; conditions: slight delay; 5'-phosphate; EMSA: 50 mM Hepes, 300 mM NaCl, 0.1 mM EDTA, 10% glycerol, 0.1 mM TCEP, on ice, 1 uM DNA; recombinant protein; protein details: His6-thioredoxin removed by TEV (QS left); folded or branched DNA
[3] = biological target: ARTD2WGR+CAT (Homo sapiens) (UniProt Q9UGN5); test: size-exclusion HPLC; conditions: 5'-phosphate; SEC-SAXS: 20 mM Hepes pH 7.5, 300 mM NaCl, 5% glycerol; recombinant protein; protein details: His6-ZB removed by TEV (QS left); folded or branched DNA
ARTD2N (Homo sapiens) [4] = biological target: ARTD2N (Homo sapiens) (UniProt Q9UGN5); test: fluorescence polarization; conditions: same range as FL, FP: 10 mM Hepes pH 8.0, 150 mM NaCl, 0.1 mM TCEP, 0.1 mM EDTA, 10% glycerol, 25 C, 5 nM DNA (250 nM for stoichiometry), recombinant protein, protein details: His6-thioredoxin removed by TEV (QS left), label: fluorescein
[5] = biological target: ARTD2N+WGR (Homo sapiens) (UniProt Q9UGN5); test: fluorescence polarization; conditions: same range as FL, FP: 10 mM Hepes pH 8.0, 150 mM NaCl, 0.1 mM TCEP, 0.1 mM EDTA, 10% glycerol, 25 C, 5 nM DNA (250 nM for stoichiometry), recombinant protein, protein details: His6-thioredoxin removed by TEV (QS left), label: fluorescein
[6] = biological target: ARTD2WGR+CAT (Homo sapiens) (UniProt Q9UGN5); test: fluorescence polarization; conditions: Kd between 170 nM and 4 uM, FP: 10 mM Hepes pH 8.0, 150 mM NaCl, 0.1 mM TCEP, 0.1 mM EDTA, 10% glycerol, 25 C, 5 nM DNA (250 nM for stoichiometry), recombinant protein, protein details: His6-ZB removed by TEV (QS left), label: fluorescein
ARTD2FL (Homo sapiens) = ARTD2FL (Homo sapiens) (UniProt Q9UGN5); test: EMSA; conditions: did not bind efficiently, EMSA: 50 mM Hepes, 300 mM NaCl, 0.1 mM EDTA, 10% glycerol, 0.1 mM TCEP, on ice, 1 uM DNA, recombinant protein, residues 1-583, protein details: His6-thioredoxin removed by TEV (QS left)
ARTD2WGR (Homo sapiens) = ARTD2WGR (Homo sapiens) (UniProt Q9UGN5); test: fluorescence polarization; conditions: Kd micromolar; 5'-phosphate; FP: 10 mM Hepes pH 8.0, 150 mM NaCl, 0.1 mM TCEP, 0.1 mM EDTA, 10% glycerol, 25 C, 5 nM DNA (250 nM for stoichiometry); recombinant protein; protein details: His6-ZB removed by TEV (QS left); label: fluorescein
[7] = 5'-phosphate, folded or branched DNA

GGAAGTTCTTTTGAACTTCC [oligonucleotide 6]
binding result (ARTD2N (Homo sapiens) [1]): no binding
binding result [2]: binds
binding result [3]: binds

GGAAGTTCTTTTGAACTTCC [oligonucleotide 42 (labelled 6)]
binding result (ARTD2N (Homo sapiens) [4]; [7]): binds
binding result [5, 7]: binds
binding result [6, 7]: binds more weakly

GGAAGTTCTTTTGAACTTCC [oligonucleotide 5]
binding result (ARTD2FL (Homo sapiens); folded or branched DNA): binds more weakly

GGAAGTTCTTTTGAACTTCCTCGAAGCTTTTGCTTCGA [oligonucleotide 41 (labelled 2)]
binding result (ARTD2N (Homo sapiens) [4]; [7]): binds
binding result [5, 7]: binds
binding result [6, 7]: binds more weakly

GCCTTAGCGCGTATACGCGCTAAGGC (double strand) [oligonucleotide 38 (labelled 18)]
binding result (ARTD2N (Homo sapiens) [4]; 5'-phosphate): binds
binding result ([5]; 5'-phosphate): binds
binding result (ARTD2WGR (Homo sapiens)): binds more weakly
binding result ([6]; 5'-phosphate): binds more weakly

GGAAGTTCTTTTGAACTTCCTCGAAGCTTTTGCTTCGA [oligonucleotide 1]
binding result (ARTD2FL (Homo sapiens); folded or branched DNA): binds more weakly

GGAAGTTCTTTTGAACTTCCTCGAAGCTTTTGCTTCGA [oligonucleotide 2]
binding result [3]: binds

CCAGGACCAGGGCGCAGATCACCTTGTTCTCCA (double strand) [oligonucleotide 39 (labelled 19)]
binding result (ARTD2N (Homo sapiens) [4]): binds
binding result [5]: binds
binding result [6]: binds more weakly

CCAGGACCAGGGCGCAGATCACCTTGTTCTCCA (double strand) [oligonucleotide 19]
binding result (ARTD2FL (Homo sapiens)): binds more weakly

GCCTTAGCGCGTATACGCGCTAAGGC (double strand) [oligonucleotide 17]
binding result (ARTD2FL (Homo sapiens)): binds more weakly

CCAGGACCAGGGCGCAGATCACCTTGTTCTCCA (double strand) [oligonucleotide 40 (labelled 20)]
binding result (ARTD2N (Homo sapiens) [4]; 5'-phosphate): binds
binding result ([5]; 5'-phosphate): binds
binding result (ARTD2WGR (Homo sapiens)): binds more weakly
binding result ([6]; 5'-phosphate): binds more weakly
